Here are results for one substance from PMC11515493.

Sequences of proteins named here, by UniProt entry; tags and fusion partners are left off.
UniProt Q8K4Q0: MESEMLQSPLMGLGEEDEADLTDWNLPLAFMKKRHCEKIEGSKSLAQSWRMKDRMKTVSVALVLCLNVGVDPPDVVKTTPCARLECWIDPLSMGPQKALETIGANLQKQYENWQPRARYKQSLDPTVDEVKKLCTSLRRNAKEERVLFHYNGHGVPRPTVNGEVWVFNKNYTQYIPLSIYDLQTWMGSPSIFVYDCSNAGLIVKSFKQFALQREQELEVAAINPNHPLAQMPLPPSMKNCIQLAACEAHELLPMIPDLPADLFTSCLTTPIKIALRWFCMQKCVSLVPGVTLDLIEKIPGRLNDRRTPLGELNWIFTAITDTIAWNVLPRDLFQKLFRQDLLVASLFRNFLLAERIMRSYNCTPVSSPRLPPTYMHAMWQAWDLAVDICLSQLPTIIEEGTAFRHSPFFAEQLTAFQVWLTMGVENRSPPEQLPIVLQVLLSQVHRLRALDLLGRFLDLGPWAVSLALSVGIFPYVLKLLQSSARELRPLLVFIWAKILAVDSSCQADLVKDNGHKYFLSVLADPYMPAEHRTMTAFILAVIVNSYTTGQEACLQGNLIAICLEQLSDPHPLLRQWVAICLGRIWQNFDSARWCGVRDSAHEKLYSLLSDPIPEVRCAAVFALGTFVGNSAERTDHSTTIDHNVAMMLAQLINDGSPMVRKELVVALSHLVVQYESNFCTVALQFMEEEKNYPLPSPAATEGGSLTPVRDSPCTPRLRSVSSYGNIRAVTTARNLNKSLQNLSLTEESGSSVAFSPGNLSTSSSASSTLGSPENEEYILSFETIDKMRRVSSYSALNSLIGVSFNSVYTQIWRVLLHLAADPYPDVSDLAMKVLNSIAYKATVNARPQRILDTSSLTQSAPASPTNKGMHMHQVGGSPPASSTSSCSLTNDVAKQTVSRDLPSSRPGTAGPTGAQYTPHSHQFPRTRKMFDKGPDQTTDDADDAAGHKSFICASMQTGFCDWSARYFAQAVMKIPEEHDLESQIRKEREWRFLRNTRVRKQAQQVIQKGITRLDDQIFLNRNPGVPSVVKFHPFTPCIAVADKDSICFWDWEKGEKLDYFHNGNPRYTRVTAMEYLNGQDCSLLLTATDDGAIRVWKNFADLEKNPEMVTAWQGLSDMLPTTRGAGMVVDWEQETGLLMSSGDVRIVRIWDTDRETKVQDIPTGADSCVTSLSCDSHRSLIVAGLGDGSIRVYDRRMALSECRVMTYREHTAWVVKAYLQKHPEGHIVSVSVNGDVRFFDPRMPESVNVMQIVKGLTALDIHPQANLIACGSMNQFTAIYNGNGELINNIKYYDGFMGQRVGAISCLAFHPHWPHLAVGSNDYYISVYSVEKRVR
UniProt P70398: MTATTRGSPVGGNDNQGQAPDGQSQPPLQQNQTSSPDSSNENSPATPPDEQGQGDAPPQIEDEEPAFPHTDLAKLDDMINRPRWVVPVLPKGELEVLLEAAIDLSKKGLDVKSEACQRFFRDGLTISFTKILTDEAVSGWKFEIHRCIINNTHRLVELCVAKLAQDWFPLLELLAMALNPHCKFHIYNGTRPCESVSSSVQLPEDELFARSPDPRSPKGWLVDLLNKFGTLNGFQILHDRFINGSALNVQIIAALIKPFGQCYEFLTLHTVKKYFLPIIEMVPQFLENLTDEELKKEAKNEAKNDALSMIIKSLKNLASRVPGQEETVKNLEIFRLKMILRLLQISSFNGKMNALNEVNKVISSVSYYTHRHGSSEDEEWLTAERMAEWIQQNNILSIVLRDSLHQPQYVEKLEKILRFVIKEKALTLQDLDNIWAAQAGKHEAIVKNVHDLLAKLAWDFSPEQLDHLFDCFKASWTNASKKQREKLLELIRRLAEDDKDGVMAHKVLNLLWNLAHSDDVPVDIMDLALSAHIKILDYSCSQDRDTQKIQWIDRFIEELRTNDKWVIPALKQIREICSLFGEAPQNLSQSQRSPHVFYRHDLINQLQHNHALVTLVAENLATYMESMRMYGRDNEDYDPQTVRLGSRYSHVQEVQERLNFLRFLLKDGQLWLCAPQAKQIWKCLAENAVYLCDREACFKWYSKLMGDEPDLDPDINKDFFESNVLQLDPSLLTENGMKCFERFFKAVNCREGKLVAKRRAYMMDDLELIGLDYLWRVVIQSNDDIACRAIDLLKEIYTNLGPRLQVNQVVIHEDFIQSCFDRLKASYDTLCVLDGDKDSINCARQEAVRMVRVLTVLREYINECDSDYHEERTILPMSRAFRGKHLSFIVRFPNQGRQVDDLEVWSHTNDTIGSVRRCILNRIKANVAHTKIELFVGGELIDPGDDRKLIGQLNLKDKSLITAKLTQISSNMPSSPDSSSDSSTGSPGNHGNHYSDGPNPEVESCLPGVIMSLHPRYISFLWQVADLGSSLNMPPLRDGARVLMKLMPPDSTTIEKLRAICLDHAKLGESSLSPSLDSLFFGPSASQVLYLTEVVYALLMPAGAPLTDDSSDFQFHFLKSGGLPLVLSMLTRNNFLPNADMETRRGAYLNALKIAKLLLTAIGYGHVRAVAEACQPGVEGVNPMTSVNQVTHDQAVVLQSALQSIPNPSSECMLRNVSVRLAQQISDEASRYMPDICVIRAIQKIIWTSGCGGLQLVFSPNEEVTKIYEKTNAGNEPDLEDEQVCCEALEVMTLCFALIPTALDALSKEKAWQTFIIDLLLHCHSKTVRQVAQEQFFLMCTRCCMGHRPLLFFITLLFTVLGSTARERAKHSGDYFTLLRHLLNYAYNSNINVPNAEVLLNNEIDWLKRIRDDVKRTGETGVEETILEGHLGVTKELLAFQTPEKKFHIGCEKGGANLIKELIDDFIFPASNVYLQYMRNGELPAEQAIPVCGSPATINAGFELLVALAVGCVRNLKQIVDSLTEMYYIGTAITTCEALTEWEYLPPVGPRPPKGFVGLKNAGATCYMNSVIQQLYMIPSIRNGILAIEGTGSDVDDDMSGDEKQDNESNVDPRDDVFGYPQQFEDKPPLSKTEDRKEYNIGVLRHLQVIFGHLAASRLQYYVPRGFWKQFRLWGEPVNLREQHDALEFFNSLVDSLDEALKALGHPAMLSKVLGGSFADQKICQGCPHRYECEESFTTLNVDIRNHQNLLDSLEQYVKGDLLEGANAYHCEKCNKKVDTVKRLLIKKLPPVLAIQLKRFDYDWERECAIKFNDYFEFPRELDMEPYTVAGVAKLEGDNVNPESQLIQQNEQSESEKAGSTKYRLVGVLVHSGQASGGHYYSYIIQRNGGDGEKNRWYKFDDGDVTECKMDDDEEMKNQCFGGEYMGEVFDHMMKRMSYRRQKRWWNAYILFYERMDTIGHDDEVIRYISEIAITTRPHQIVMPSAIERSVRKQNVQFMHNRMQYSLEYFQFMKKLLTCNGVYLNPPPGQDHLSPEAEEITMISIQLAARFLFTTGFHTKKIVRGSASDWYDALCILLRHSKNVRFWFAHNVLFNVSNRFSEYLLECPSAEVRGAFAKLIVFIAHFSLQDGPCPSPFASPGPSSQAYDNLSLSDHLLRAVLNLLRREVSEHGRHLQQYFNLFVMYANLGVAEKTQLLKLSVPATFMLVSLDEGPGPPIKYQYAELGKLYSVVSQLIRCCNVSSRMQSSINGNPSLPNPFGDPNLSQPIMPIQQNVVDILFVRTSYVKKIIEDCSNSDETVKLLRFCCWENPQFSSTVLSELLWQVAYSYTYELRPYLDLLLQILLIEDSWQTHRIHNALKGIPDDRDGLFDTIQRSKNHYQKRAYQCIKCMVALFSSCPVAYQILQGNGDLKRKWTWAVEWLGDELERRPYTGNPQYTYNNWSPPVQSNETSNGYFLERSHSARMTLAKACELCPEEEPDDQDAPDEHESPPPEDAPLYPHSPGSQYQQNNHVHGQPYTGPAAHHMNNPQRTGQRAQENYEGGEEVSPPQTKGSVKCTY

The target in this test is Raptor, endogenous in mouse hippocampus (mouse (endogenous in hippocampus)) (UniProt Q8K4Q0). The experiment in a line: co-IP; hippocampal lysate of P301S mice; 2 mg protein with 4 ug primary antibody overnight at 4 °C, Protein A + G agarose 4 h, three washes, Western blot.

These are yes or no findings as the source states them, for the method shown. Binding seen in cells or lysates may run through a third protein. Some entries that bind do so weakly or less than the wild type.

Take “USP9X (ubiquitin specific peptidase 9, X-linked), endogenous in mouse hippocampus (from UniProt P70398 1-2559) (enzyme)”: the binding result was “binds”.
